Test results taken from PubChem BioAssay AID1508600 (Functional Genomics Laboratory (NCATS/FGL), 2020).
Screen size: about 53,000 sequences; about 3,700 (7%) were called active.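 The calls were made as follows: active = gene knockdowns whose robust z-score for IL-1 alpha signal is at least 2 or at most -2, so actives lie on both sides; inactive = the rest.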 Some of the results follow.

Assay: Components of the Cytosolic LPS Sensing Pathway: Gene Identification via Genome-wide siRNA Screen;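 also: robust z of the log signal after scaling to non-targeting control siRNA wells of the plate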
Details: RAW264.7 macrophages, IL-1a HTRF, actives lie on both sides, screened at 100 nM (by protocol), cells primed 5 h with Pam3CSK4 first
Procedure, shortened: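 Supernatant IL-1a by HTRF from RAW264.7 cells primed with Pam3CSK4 (5 hours) and transfected with LipidA (24 hour) after 48h siRNA knockdown at 100 nM; cell viability checked with CellTiter-Glo.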

Sequence	z-score
GCAUGGACAGGUCUAAUUGTT against 9530085L02Rik	inactive: -0.415
GGUCUGGAGCCAGAACUCUTT against Trmt12	inactive: 0.754
GCUGUUUGACUACAUAAUCTT against Melk	inactive: 0.275
CGCUCAUAGAUGAUGCUCUTT against Wbp1l	inactive: 1.48
GGUGCUCCUAUCCUGUUCATT against Lhfp	inactive: -0.331
GGAUUGCCGAAACUGUACATT against Ucp1	inactive: 0.567
GGUAUAUAGGGCUGUGGCUTT against Pigs	inactive: -0.822
GGCUAUGAAGAAAACAUGUTT against Gpx7	inactive: 0.0025
CCAGACUAUUUAACUUGAGTT against Adrb2	inactive: 0.12
GGAGAGACAUCCAAAAGUATT against H60a	inactive: 0.658
GGAGAUAUGUUCAUUGUUCTT against Rasa1	inactive: 1.01
GGACUCUUACGCCUCAUCATT against Zfp955a	inactive: -0.945
GCAAUCGAGCUGAAACUAGTT against Hat1	inactive: 0.721
GGACAAAUGGUAUUGUAGUTT against Coa5	inactive: -1.72
GCUGAUCCUUAACUUAAAGTT against Adam1b	inactive: -0.242
GGAAAAAGCCCUUGAACAUTT against Tnnt1	inactive: 1.48
GCCUUUUGAGUAUAACGAATT against Zfp248	inactive: -0.228
GGCUGAAUAGUCCUAGCAGTT against Poglut3	inactive: -0.19
GGAAGCCAAAGAAAAGUUCTT against Ski	inactive: -0.893
CCCAGAACACCGUAUACUUTT against Itga3	active: 3.95
GGAAAUUGCAUGUGAAAUUTT against Prrc2b	inactive: -0.256
GGAGAGCACAAAGAACAUUTT against Med6	inactive: 0.62
GGCCUUUUUACCUGUGCACTT against Pigx	inactive: -0.946

Looked up one by one from above:
Sequence	z-score
GGACAAAUGGUAUUGUAGUTT against Coa5	inactive: -1.72
GCUGUUUGACUACAUAAUCTT against Melk	inactive: 0.275
GGCCUUUUUACCUGUGCACTT against Pigx	inactive: -0.946
GGCUAUGAAGAAAACAUGUTT against Gpx7	inactive: 0.0025

(further entries)

Sequence	z-score
GGACAAGUAUAGCCAUCUUTT against Spag7	inactive: -0.263
CCACCUGAAUCAUUACUCATT against Rdh19	active: -3.29
GGUUCUUUUCAGCUCAUUATT against Toporsl	inactive: -0.0962
GGGAGAAAGAUUGUAACUATT against 1110032A03Rik	inactive: -1.05
GGGUUAAAUGCAAUGCAGCTT against Celf1	inactive: 0.301
GCUUGGUUGGCCUUUUCCATT against Olfr320	inactive: -1.04
GCUUAAGUGCAGUAAUAUCTT against 4932411N23Rik	inactive: -1.65
GGCCAACAUGCUAUACUUCTT against Stat2	inactive: 0.473
GGAUGAUACCUCCAAUAACTT against Mucl1	inactive: -1.54
CCCACAGGACUCAUUAACATT against Rab4a	inactive: -1.27
GGAUCUACUAGGAAAGAAATT against Serpini1	inactive: -0.0499
GCCUUUAUACAAUUAGACUTT against Has3	inactive: 0.107
CGUAAGGCCUAAGGUUAUUTT against Leng1	inactive: 1.51
GGCAGAAGACCAAAAUUGGTT against Pmm2	inactive: -1.5
GGGAGUGUAUAAACCUCGGTT against Vdac2	inactive: 0.259
GCCUAGAAUCAAUGGAACCTT against Olfr402	inactive: 0.784
GGUGAUCUAUCCCUAUUCATT against Ubash3b	inactive: -0.356
CCUGAUACUAACAAGGAAATT against Afmid	inactive: -0.625
GGUUUCCAACAACAUCAAATT against Hsd17b12	inactive: -0.0368
GGAACCAAUCAGUUGGUUATT against Taf7	inactive: 0.395
GCCGAUGAACCAAUGGAACTT against Psma1	inactive: -0.707
CCAGAAAUUGACAAAAAGUTT against Etfa	inactive: 0.492
GGAAAUGGGUCUUGAAGUUTT against Lrrc58	inactive: -0.304

Sequence	z-score
GGAGAUCUUCAACUGCCACTT against Rps6kl1	inactive: 0.842
GCCUCCUGAAUGAUGACAUTT against Klk1b24	inactive: -0.97
GGGUAAACUAUUUGUUGUUTT against Arl6ip6	inactive: 0.899
GGAUUGUUCUUUCUUUCUCTT against Stac	inactive: -0.00245
GGGAUUCCUAUUUCACAUCTT against Gemin8	inactive: -0.733
CCCAAUGGCAAUUUUUAGATT against Slc22a22	inactive: -0.846
GGAAGUAACCACAUCCUAUTT against Epn2	inactive: -0.628
GGGAAUGGGUGUUCAUCCATT against Tnf	inactive: 0.68
GCUGAGCUGCGCUUAUUGGTT against Fes	inactive: -1.02
GGAGGAUAAGGAUACAGUATT against Cspg5	active: 2.27
CCUAUAUGCGCUAUUUGAATT against Myo9a	inactive: 0.513
GGCCCUGUAGAAGACAAUGTT against Plxna1	inactive: -0.06
GCACUCGUCGUUUGGCUAUTT against Pitx1	inactive: 0.213
GGAAAAAGACCACAGCCAGTT against Oaz3	inactive: -1.75
GCCAUAAAAGCCUCAUUAGTT against C130021I20Rik	inactive: -0.2
GGAGCUGGUGCUGAAGAACTT against Cnppd1	inactive: 0.841
GGUCCCUUCUUCUCAAGGUTT against Olfr1	inactive: 1.94
CCCAGGACAAAAUAGUGUCTT against Olfr164	inactive: -0.68
GGCCUAUUGUAAAAACCCATT against Taf1b	active: -2.56
GGUUUUGAAGUGAUUGAAGTT against Tjp2	inactive: -0.218
GGAGAUGAUGUCACCUACATT against Cttnbp2nl	inactive: 1.27
GGAAGAAAACAAAGACGGCTT against Mxd4	inactive: 0.0149
